Measurements as given in PMC12010153.
No constants are given. Whether binding was seen depends on the method and setting. In cells and extracts the contact can be indirect. Some entries that bind do so weakly or less than the wild type. Sequences can lack the tags named with a protein.

Amino acid sequences for entries named in this document (tags omitted). A change or cut given only in a name is not applied to a line headed by its entry.
UniProt P36405: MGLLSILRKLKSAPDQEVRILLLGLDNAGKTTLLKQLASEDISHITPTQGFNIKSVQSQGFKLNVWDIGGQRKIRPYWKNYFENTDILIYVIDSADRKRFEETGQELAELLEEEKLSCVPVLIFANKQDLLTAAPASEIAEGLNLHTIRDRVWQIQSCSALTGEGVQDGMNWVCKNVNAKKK

Biological target: T1, RP2-GFP (UniProt O75695)
T1 sequence: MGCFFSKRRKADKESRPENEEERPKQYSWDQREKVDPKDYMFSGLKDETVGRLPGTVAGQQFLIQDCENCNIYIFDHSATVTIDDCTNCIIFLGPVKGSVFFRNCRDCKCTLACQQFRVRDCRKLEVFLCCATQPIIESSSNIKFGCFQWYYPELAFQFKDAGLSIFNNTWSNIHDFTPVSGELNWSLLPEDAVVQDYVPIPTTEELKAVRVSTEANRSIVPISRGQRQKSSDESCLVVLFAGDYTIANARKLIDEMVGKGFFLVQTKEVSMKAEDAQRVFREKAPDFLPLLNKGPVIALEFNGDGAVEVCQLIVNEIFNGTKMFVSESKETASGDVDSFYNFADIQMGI
Assay: co-IP; HEK293 cells co-transfected with GFP-RP2 and VSV-ARL3 plasmids, 48 h; lysis in 10 mM Tris/Cl pH 7.5, 150 mM NaCl, 0.5 mM EDTA, 0.5% Nonidet P40 Substitute; lysates on GFP-Trap Magnetic Agarose beads; blots with anti-GFP and anti-VSV

Row | Substance | binding
1 | ARL3-G70E-VSV (from UniProt P36405 1-182) | binds
2 | ARL3-Q71L-VSV (from UniProt P36405 1-182) | binds
